Assay results published in PubChem BioAssay AID1458 (National Center for Advancing Translational Sciences (NCATS), 2008).
Hit rate of the full screen: of about 210,000 compounds, about 5,900 (2.8%) were called active. About 5% were inconclusive and are not listed. Calls follow the shape of the dose curve; as a rule, active = well fitted activation curve with a large enough effect; inconclusive = small, poorly fitted or top-dose-only effect; inactive = no such curve, though single readings can be large or run the other way. The entries are a selection whose mix differs from that of the whole data set. The source gives no active or inactive call for entries shown without one.

Experiment: qHTS Assay for Enhancers of SMN2 Splice Variant Expression; also: nearly all actives have a fitted effect of over 55% in size; as to activity change, positive = activation: % of control where 0% means no effect
Conditions: HEK293 SMN2-luciferase splicing reporter, luminescence, 30-36 h; activity change, positive = activation: at 46.1 µM (top of the series) unless noted
How it was run: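 qHTS luciferase splicing reporter: luminescence rises when SMN2 exon 7 is included in transfected HEK293 cells. Compound exposure lasted 30-36 h at 37C, with 4.5 mM final sodium butyrate as control, followed by a ONE-Glo read.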
Potency is read from the fitted curve at half-maximal effect.

Compound	activity change, positive = activation	Potency
Cc1nc(-c2ccc(C(=O)N3CCCC3)cc2)cs1	47.1%	–
CC1(c2ccc3noc(-c4ccccc4)c3c2)OCCO1	-71.7%	–
CC1(C)C2CCC13CS(=O)(=O)N[C@@H]3C2 (some centres undefined)	54.7%	–
O=C(N1CCCCC1)N1CCN(C(=O)N2CCCCC2)CC1	-26.8%	–
Nc1cc2nn(-c3ccccc3)nc2cc1Cl	–	active: 3.16 µM
O=C(CCCOc1ccccc1)Nc1ccc2c(c1)OCCO2	32.5%	–
CC1(C)CC(=O)C=C(Nc2ccc(S(N)(=O)=O)cc2)C1	37.1%	–
FC(F)(F)c1cnc(-c2cnc(-c3cccnc3)nc2)c(Cl)c1	–	active: 12.6 µM
CC(=O)Nc1ccc(/C(C)=N/NC(=O)c2ccc(CN3CCOCC3)cc2)cc1	inactive: -42.6%	–
Cc1nn(-c2ccccc2)c(/N=C/c2ccccc2O)c1-c1ccccc1	–	active: 11.2 µM
Cc1cc(=O)oc2c(C(=O)/C=C/c3ccccc3)c(O)ccc12	35.3%	–
O=C(O)/C=C/C(=O)Nc1ccc2nccnc2c1	inactive: 42.4%	–
O=C(O)c1ccccc1N/N=C\c1ccnc2ccccc12	–	active: 5.01 µM
COC(=O)c1ccc(CO/N=C/c2ccc(OC)cc2)o1	161%	–
CC(C)CNC(=S)NC(=O)c1ccccc1Cl	33%	–
NC(=O)NC(CC(=O)NCCCc1ccccc1)c1ccccc1Cl (centres undefined)	-14.4%	–
CC(C)C(C(=O)Nc1ccc2c(c1)OCCOCCOCCOCCO2)N1C(=O)c2ccccc2C1=O (centres undefined)	inactive: -18.3%	–
CCN(CC)CCNC(=O)c1ccccc1C(=O)c1ncc[nH]1	-38.8%	–
CCOc1ccc(C(=O)N(Cc2nc(-c3cccc(C)c3)no2)C(C)C)cc1	36.7%	–
Cc1ccc(C(=O)N/C(=C/c2ccco2)C(=O)NCCCn2ccnc2)cc1	36.4%	–
N/C(=N\OC(=O)c1ccccc1Cl)c1ccc(Cl)cc1	–	active: 15.8 µM
Cc1cc2c(cc1C)NC(c1nc3ccccc3[nH]1)C1=C(CC(C)(C)CC1=O)N2 (centres undefined)	31.1%	–
CC(=O)c1c(C)oc2c1C(=O)c1ccccc1C2=O	-89.7%	–

Compound	activity change, positive = activation	Potency
N#Cc1c(/N=C\c2ccc(O)c([N+](=O)[O-])c2)sc2c1CCCC2	105%	–
O=C(CCc1ccc(S(=O)(=O)N2CCOCC2)cc1)Nc1nc(COc2ccccc2)cs1	inactive: -64.5%	–
COc1cc(C(=O)Oc2ccccc2/C=N/NC(=O)c2ccc(C)c(Cl)c2)cc(OC)c1OC	inactive: -95.9%	–
Cc1ccnc(NC(=O)c2cc3ccccc3oc2=O)c1	–	active: 11.2 µM
Cc1ccc(NC(=O)NC2(C(=O)NCc3ccco3)CCCCC2)cc1	48.3%	–
COc1ccccc1NC(=S)NC1CCCCC1	32.6%	–
Cc1cc(=O)n2c(-c3ccccc3C)n[nH]c2n1	37.2%	–
Cc1cccc(N/N=C/c2ccccc2O)c1	–	active: 11.2 µM
O=c1c2cc(N3CCOCC3)ccc2[nH]c(=S)n1Cc1ccco1	31.7%	–
c1coc(C2=Nc3cccc4cccc(c34)N2)c1	inactive: -36.8%	–
CCOC(=O)c1ccc2c(c1)nc(COc1ccccc1C#N)n2CC	51.2%	–
O=C(Cc1ccccc1)NN1C(=O)C2C3C=CC(C3)[C@@H]2C1=O (some centres undefined)	inactive: 7.56%	–
CN(C)S(=O)(=O)c1ccc(NC(=O)N2CCN(c3ccccc3Cl)CC2)cc1	inactive: -48.2%	–
COc1ccc(Cc2[nH]n3c(=O)cc(C(C)C)nc3c2-c2ccccc2)cc1	inactive: -78.5%	–
COc1ccc(-c2cc3ncc(C(C)=O)c(C)n3n2)cc1	–	active: 11.2 µM
Cc1ccc(S(=O)(=O)N2CCCC2C(=O)Oc2ccccc2)cc1 (centres undefined)	46.8%	–
COc1ccc(C(N)=O)cc1NC(=O)CC(O)(C(F)(F)F)C(F)(F)F	34.1%	–
COc1cc(S(=O)(=O)Nc2cccc(C)c2)ccc1NC(=O)c1cccnc1	inactive: -37.5%	–
O=C(COc1ccc(Cl)cc1)Nc1ccc(C(=O)NCc2cccnc2)cc1	-59.3%	–
COc1ccc(Cn2c(=O)sc3ccccc32)cc1OC	-63.8%	–
CCOC(=O)CSc1nc2cc(C(=O)N3CCC(C(N)=O)CC3)ccc2c(=O)n1-c1ccccc1	43.5%	–
Cc1csc(NC(=O)CSc2nnc(-c3ccccc3)o2)n1	–	active: 11.2 µM
Cc1ccc(S(=O)(=O)Cc2ccc(C(=O)N3CCN(Cc4ccccc4)CC3)o2)cc1	inactive: -33%	–

Compound	activity change, positive = activation	Potency
CCOC(=O)CCCCC(=O)c1[nH]c(=O)[nH]c1CN1CCOCC1	22%	–
Cn1cc([N+](=O)[O-])c(C(=O)Nc2cc(Oc3cccnc3)cc([N+](=O)[O-])c2)n1	inactive: -44.9%	–
COc1ccc(CC(=O)Nc2ccc(-c3csc(C)n3)cc2)cc1	39.6%	–
CCOC(=O)c1c(C)[nH]c(C(=O)CSc2nc3ccccc3o2)c1C	–	active: 0.316 µM
CCC(=O)NC(=S)Nc1ccc2oc(-c3ccc(OC)cc3)nc2c1	–	active: 7.94 µM
O=C(CCNC(=O)c1ccccc1Cl)Nc1nc2ccccc2s1	74.3%	–
CCCCN(CCCC)C(=O)c1nsnc1-c1ccccc1O	32.8%	–
CN(C(=O)C1CCOC1)c1nnc(-c2ccccn2)s1 (centres undefined)	inactive: 80.2%	–
c1ccc2c(c1)OCC(CNc1ncnc3sccc13)O2 (centres undefined)	inactive: -63.5%	–
COc1cc2c(cc1OC)C(c1cc3cc4c(cc3[nH]c1=O)OCO4)N(C(=O)C(C)C)CC2 (centres undefined)	-40.9%	–
C[N+](C)(C)CCCCCC(=O)/C=N/O	-32.4%	–
Nc1nonc1-c1nc2ccccc2n1CC(=O)Nc1cccc(C(F)(F)F)c1	40%	–
CCOC(=O)c1[nH]c(C)c(C(=O)Nc2cccc(Cl)c2C)c1C	44.9%	–
Clc1ccc(CN=C2Nc3ccccc3CS2)cc1	–	active: 12.6 µM
Cc1cccc(NS(=O)(=O)c2ccc(C)c(C(=O)OCC(=O)Nc3cc(C)on3)c2)c1	–	active: 20 µM
Clc1ccccc1/C=N/NC1=Nc2cccc3cccc1c23	–	active: 5.62 µM
CCOC(=O)c1sc(NC(=O)c2cc(-c3ccc(C)cc3)nc3ccccc23)c(C#N)c1C	inactive: -78.4%	–
Cc1ccc(-c2nc3ccccc3o2)cc1NC(=O)c1ccc2c(c1)OCO2	54.6%	–
Cc1ccc(S(=O)(=O)/C=C2\NC(=O)CS2)cc1	30%	–
O=C(CCCn1c(=O)c2ccccc2n(CC(=O)NCc2ccco2)c1=O)NCc1ccco1	66.1%	–
COc1ccccc1-n1c(SCC(=O)O)nnc1-c1ccc(S(=O)(=O)N2CCCCC2)cc1	37.9%	–
O=C1C(Nc2cccc(O)c2)=C(N2CCCCC2)C(=O)c2ccccc21	inactive: -30.2%	–
COc1cccc(/C=N/Nc2nccnc2Cl)c1O	inactive: -65.7%	–

Individual results from above.
Entry of COc1ccc(CC(=O)Nc2ccc(-c3csc(C)n3)cc2)cc1 under activity change, positive = activation: 39.6%
Entry of CCOC(=O)c1sc(NC(=O)c2cc(-c3ccc(C)cc3)nc3ccccc23)c(C#N)c1C under activity change, positive = activation: inactive: -78.4%
Entry of COc1ccccc1-n1c(SCC(=O)O)nnc1-c1ccc(S(=O)(=O)N2CCCCC2)cc1 under activity change, positive = activation: 37.9%
Entry of CN(C(=O)C1CCOC1)c1nnc(-c2ccccn2)s1 (centres undefined) under activity change, positive = activation: inactive: 80.2%
Entry of CCOC(=O)CCCCC(=O)c1[nH]c(=O)[nH]c1CN1CCOCC1 under activity change, positive = activation: 22%
Entry of CCOC(=O)c1[nH]c(C)c(C(=O)Nc2cccc(Cl)c2C)c1C under activity change, positive = activation: 44.9%
